Experimental data published in the supplement of paper PMC10849652.
Some of the results follow.

The chains behind the UniProt entries cited, without tags or fusion partners. Where a name states a change or a piece, a line headed by the entry shows the natural chain unless it says otherwise.
UniProt Q92830, whole entry, looked up: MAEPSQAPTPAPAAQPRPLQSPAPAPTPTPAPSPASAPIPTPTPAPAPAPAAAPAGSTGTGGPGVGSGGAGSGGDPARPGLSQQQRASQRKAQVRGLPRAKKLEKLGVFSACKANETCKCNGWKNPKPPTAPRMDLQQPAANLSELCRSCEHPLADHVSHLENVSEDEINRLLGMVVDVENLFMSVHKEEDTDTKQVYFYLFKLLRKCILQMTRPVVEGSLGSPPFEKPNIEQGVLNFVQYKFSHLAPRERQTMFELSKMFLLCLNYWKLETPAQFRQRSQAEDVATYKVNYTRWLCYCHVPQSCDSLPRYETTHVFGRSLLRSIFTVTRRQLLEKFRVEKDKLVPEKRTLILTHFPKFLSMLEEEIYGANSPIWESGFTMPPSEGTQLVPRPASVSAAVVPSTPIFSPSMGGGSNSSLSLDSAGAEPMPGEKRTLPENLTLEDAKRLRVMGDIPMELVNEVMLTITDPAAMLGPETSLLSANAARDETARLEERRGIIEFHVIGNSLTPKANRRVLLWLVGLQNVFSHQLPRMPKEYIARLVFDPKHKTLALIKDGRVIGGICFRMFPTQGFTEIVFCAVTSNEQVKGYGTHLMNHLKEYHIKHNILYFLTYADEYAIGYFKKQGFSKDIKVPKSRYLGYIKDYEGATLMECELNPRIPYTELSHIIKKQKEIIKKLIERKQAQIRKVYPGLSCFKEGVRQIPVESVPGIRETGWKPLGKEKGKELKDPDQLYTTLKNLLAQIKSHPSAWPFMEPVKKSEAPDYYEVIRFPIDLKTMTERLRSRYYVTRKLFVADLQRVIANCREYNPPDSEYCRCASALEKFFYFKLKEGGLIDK
UniProt Q96AZ6: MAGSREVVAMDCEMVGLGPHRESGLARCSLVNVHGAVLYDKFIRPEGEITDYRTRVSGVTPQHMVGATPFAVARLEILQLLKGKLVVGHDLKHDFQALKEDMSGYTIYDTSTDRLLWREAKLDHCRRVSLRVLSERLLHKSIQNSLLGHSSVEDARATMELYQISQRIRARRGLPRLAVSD
UniProt Q674X7: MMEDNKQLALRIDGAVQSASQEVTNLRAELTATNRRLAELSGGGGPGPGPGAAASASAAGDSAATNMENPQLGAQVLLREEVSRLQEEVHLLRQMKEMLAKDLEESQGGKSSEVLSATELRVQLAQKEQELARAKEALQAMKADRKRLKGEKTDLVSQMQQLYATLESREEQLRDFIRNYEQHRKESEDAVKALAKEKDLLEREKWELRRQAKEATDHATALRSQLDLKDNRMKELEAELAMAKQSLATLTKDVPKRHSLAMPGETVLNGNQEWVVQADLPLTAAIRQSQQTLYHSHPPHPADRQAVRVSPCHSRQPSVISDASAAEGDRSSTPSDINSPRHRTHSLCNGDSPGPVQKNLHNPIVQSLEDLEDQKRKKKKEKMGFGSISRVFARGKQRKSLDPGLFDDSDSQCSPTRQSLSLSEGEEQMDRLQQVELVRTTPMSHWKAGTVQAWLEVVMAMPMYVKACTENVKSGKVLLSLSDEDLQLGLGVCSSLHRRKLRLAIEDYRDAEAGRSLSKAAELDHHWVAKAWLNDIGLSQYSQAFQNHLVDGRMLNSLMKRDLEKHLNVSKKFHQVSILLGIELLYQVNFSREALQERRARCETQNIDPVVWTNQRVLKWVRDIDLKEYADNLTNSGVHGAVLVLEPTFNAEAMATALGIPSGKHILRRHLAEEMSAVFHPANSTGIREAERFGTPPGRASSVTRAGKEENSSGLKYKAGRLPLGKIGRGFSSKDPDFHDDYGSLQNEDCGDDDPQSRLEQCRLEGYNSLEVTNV
UniProt Q8N9B5, whole entry, looked up: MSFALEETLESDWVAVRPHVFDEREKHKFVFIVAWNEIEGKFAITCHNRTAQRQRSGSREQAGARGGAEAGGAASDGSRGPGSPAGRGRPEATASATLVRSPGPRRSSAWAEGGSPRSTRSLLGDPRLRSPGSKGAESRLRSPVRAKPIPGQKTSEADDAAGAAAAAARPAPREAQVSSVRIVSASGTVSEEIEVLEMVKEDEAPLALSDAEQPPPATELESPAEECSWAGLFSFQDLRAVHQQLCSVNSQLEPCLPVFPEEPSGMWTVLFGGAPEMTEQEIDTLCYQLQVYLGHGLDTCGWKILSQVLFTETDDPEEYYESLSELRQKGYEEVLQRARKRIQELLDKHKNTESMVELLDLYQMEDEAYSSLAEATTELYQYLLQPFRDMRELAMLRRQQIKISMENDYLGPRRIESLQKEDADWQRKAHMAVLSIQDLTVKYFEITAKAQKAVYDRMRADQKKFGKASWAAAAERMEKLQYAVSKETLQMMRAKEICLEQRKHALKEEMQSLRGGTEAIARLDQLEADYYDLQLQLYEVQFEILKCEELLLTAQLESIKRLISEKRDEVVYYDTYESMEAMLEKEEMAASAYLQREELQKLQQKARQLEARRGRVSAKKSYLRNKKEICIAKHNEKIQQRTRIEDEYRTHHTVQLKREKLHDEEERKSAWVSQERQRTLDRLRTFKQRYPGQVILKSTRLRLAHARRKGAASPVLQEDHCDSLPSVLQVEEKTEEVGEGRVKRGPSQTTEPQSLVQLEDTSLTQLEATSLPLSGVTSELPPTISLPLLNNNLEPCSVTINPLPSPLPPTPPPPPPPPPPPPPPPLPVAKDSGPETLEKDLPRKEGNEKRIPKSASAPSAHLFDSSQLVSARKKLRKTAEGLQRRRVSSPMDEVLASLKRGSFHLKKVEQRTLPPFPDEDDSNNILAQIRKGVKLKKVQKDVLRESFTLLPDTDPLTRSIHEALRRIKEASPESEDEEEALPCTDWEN
UniProt P01591, whole entry, looked up: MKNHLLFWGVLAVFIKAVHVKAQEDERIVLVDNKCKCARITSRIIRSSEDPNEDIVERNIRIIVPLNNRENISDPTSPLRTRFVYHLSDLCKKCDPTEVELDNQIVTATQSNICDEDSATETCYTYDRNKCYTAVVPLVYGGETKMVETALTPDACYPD
UniProt P05412, whole entry, looked up: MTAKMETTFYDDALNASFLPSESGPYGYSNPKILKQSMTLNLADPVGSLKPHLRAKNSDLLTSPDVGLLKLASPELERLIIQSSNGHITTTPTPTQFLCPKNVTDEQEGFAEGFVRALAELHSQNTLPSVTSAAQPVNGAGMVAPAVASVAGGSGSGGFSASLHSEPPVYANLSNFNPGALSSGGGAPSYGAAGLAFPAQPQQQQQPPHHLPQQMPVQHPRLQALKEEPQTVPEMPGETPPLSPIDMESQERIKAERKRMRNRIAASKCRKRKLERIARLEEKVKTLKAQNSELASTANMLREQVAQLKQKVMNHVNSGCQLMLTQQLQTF
UniProt Q9Y287, whole entry, looked up: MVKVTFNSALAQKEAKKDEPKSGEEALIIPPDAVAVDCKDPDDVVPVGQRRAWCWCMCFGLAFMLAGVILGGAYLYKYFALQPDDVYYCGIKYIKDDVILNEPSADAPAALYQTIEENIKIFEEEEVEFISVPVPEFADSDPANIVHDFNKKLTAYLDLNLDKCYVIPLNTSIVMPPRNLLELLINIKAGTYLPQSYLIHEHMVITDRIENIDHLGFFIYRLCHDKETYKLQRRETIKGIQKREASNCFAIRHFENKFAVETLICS
UniProt Q14573, whole entry, looked up: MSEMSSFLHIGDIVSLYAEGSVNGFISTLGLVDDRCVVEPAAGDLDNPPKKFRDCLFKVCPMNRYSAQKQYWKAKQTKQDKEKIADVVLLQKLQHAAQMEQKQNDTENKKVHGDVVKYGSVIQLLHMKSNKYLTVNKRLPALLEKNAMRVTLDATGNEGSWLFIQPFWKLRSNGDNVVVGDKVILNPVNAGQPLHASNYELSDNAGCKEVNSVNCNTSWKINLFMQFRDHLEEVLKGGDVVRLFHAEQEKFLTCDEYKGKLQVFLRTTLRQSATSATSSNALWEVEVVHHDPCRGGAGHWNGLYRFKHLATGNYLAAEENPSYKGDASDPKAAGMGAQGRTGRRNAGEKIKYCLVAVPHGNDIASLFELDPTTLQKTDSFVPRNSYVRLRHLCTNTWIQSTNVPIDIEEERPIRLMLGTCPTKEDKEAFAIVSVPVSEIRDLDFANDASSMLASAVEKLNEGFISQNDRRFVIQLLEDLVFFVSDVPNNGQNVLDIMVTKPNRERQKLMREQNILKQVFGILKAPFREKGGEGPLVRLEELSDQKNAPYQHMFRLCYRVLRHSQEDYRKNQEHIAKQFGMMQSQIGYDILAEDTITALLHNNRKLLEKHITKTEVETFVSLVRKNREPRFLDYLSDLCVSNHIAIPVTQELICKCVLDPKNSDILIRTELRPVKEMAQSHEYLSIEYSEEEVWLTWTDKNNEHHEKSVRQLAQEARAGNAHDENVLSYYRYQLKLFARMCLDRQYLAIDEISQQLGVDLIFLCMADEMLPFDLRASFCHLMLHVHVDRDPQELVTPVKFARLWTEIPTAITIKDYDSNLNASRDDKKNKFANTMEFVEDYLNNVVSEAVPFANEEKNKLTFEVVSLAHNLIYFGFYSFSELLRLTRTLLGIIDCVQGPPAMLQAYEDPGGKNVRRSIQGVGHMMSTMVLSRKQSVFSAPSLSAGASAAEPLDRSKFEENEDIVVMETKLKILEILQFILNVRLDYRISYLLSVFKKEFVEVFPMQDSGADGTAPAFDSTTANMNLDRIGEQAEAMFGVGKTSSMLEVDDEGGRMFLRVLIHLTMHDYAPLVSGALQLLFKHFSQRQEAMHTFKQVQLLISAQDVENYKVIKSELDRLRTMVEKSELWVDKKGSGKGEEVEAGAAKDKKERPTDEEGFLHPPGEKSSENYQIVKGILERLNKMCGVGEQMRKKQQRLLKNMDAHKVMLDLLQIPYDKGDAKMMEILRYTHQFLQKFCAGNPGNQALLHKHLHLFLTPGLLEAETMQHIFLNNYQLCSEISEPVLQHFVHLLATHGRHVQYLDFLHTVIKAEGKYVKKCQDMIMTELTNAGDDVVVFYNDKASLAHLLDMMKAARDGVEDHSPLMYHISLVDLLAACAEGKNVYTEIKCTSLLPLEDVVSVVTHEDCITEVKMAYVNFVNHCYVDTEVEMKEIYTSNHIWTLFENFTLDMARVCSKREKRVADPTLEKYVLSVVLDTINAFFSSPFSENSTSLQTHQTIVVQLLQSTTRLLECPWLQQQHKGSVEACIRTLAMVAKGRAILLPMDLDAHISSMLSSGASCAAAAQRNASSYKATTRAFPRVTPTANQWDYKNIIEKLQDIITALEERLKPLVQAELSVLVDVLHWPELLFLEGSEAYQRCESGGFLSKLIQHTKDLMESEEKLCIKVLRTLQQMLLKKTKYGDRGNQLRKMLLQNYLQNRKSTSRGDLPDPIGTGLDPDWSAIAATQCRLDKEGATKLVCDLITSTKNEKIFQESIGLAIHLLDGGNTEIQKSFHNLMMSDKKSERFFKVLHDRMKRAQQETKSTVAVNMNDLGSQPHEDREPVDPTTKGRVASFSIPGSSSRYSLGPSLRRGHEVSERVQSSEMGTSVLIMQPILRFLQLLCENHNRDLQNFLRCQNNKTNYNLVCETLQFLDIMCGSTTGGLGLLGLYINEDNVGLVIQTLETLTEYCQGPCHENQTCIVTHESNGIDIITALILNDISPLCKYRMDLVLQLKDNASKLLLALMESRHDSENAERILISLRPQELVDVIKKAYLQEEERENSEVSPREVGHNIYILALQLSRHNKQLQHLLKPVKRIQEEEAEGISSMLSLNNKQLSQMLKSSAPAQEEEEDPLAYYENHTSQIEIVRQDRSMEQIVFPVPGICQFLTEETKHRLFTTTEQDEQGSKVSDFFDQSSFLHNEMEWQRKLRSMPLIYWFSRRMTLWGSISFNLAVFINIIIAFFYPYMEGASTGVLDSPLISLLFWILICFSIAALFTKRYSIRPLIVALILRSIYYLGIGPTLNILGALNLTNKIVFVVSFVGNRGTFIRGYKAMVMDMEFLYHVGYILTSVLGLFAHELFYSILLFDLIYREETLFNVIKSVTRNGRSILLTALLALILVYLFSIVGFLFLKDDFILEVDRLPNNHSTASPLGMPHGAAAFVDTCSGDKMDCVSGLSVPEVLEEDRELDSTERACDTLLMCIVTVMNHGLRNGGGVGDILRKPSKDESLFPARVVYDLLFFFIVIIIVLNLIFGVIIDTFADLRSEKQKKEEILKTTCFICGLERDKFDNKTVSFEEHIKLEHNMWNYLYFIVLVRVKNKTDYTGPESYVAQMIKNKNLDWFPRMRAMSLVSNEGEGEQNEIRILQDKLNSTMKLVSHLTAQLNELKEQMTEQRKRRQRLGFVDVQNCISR
UniProt Q13352: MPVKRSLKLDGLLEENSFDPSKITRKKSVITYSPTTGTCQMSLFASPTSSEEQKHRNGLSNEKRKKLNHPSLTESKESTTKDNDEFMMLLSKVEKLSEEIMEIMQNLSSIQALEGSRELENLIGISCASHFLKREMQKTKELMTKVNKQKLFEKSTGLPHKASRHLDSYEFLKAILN

Columns and labels:
Assay in all cases: log2 fold change, soluble protein after heating vs DMSO (PISA); higher = thermal stabilisation; K562 lysate, 10 uM; active = over 0.2 and 3.5 SD of the protein, either way, in both replicates (recomputed)
[1] = compound: CCCS(=O)(=O)Nc1ccc(F)c(C(=O)c2c[nH]c3ncc(Cl)cc23)c1F
Method in brief: (§1)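 Quantification was by TMTpro 16plex LC-MS/MS with equalised channel sums, applied to the supernatant after 21,000xg for 90 min. Samples were crude K562 extract at 1 mg/mL protein in PBS pH 7.4 with 1 mM MgCl2, treated with 10 μM compound for 30 min, heated for 3 min across 48°C-58°C, pooled and brought to 0.5% NP-40 at 4°C. Values are log-two fold changes in thermal stability relative to solvent controls, from duplicates.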

[2] = compound: CC[C@@H]1C(=O)N(C)c2cnc(Nc3ccc(C(=O)NC4CCN(C)CC4)cc3OC)nc2N1C1CCCC1
Method in brief: as §1

volasertib = compound: CC[C@@H]1C(=O)N(C)c2cnc(Nc3ccc(C(=O)N[C@H]4CC[C@H](N5CCN(CC6CC6)CC5)CC4)cc3OC)nc2N1C(C)C [volasertib]
Method in brief: as §1

[3] = compound: CCn1c(C(=O)N(C2CC2)C2CC2)cc2c3c(ncn3C)c(Nc3cc(C)n(C)n3)nc21
Method in brief: as §1

[4] = compound: CCn1cc(-c2ccnc3[nH]c(-c4cccc(CN(C)C)c4)cc23)c(-c2ccc(NC(=O)N(C)C)cc2)n1
Method in brief: as §1

[5] = compound: CN1CCC(CNc2ccc3ncc(-c4cccc(OC(F)(F)F)c4)n3n2)CC1
Method in brief: as §1

saracatinib = compound: CN1CCN(CCOc2cc(OC3CCOCC3)c3c(Nc4c(Cl)ccc5c4OCO5)ncnc3c2)CC1 [saracatinib]
Method in brief: as §1

sotrastaurin = compound: CN1CCN(c2nc(C3=C(c4c[nH]c5ccccc45)C(=O)NC3=O)c3ccccc3n2)CC1 [sotrastaurin]
Method in brief: as §1

alvocidib = compound: CN1CC[C@H](c2c(O)cc(O)c3c(=O)cc(-c4ccccc4Cl)oc23)[C@H](O)C1 [alvocidib]
Method in brief: as §1

Tubastatin A = compound: CN1CCc2c(c3ccccc3n2Cc2ccc(C(=O)NO)cc2)C1 [Tubastatin A]
Method in brief: as §1

[6] = compound: CNc1nc(-c2ccc3c(N)n[nH]c3c2)cc(N2C[C@@H](C(=O)NC3CCCCC3)CC[C@H]2C)n1
Method in brief: as §1

encorafenib = compound: COC(=O)N[C@@H](C)CNc1nccc(-c2cn(C(C)C)nc2-c2cc(Cl)cc(NS(C)(=O)=O)c2F)n1 [encorafenib]
Method in brief: as §1

[7] = compound: COC(=O)[C@H](CCSC)NC(=O)C1=C(C=C(C=C1)NC[C@H](CS)N)C2=CC=CC=C2
Method in brief: as §1

alisertib = compound: COc1cc(Nc2ncc3c(n2)-c2ccc(Cl)cc2C(c2c(F)cccc2OC)=NC3)ccc1C(=O)O [alisertib]
Method in brief: as §1

[8] = compound: COc1cc2nc(-c3cc(F)ccc3O)nc(N[C@@H]3CNC[C@H]3C(C)(C)O)c2cc1OC
Method in brief: as §1

[9] = compound: CNC(=O)C1=CC=CC=C1NC2=NC(=NC=C2Cl)NC3=C(C=C(C=C3)N4CCOCC4)OC
Method in brief: as §1

vemurafenib = compound: CCCS(=O)(=O)Nc1ccc(F)c(C(=O)c2c[nH]c3ncc(-c4ccc(Cl)cc4)cc23)c1F [vemurafenib]
Method in brief: as §1

defactinib = compound: CNC(=O)c1ccc(Nc2ncc(C(F)(F)F)c(NCc3nccnc3N(C)S(C)(=O)=O)n2)cc1 [defactinib]
Method in brief: as §1

barasertib = compound: CCN(CCCOc1ccc2c(Nc3cc(CC(=O)Nc4cccc(F)c4)[nH]n3)ncnc2c1)CCOP(=O)(O)O [barasertib]
Method in brief: as §1

gefitinib = compound: COc1cc2ncnc(Nc3ccc(F)c(Cl)c3)c2cc1OCCCN1CCOCC1 [gefitinib]
Method in brief: as §1

Measured: log2 fold change

KAT2A (UniProt Q92830)
inactive: [1] -0.081 | [2] -0.18 | volasertib -0.076 | [3] 0.168 | [4] 0.027 | [5] 0.061 | saracatinib -0.099 | sotrastaurin 0.034 | alvocidib -0.009 | Tubastatin A -0.252 | [6] -0.104 | encorafenib 0.055 | [7] 0.257 | alisertib 0.054 | [8] 0.067

INTS6L (UniProt Q5JSJ4)
inactive: [1] 0.047 | volasertib 0.044 | [3] 0.083 | [4] -0.034 | [5] 0.105 | saracatinib -0.119 | alvocidib 0.011 | Tubastatin A 0.059 | [9] -0.04 | [6] -0.038 | [8] -0.061

NA (UniProt J3KR12)
inactive: vemurafenib 0.131 | [2] -0.021 | [4] -0.144 | [5] -0.096 | alvocidib -0.064 | defactinib -0.1 | encorafenib -0.023 | [7] 0.338

JMJD7 (UniProt P0C870)
inactive: [1] -0.042 | barasertib 0.137 | [2] 0.231 | volasertib 0.006 | [3] -0.007 | [4] -0.162 | [5] 0.043 | saracatinib 0.109 | alvocidib 0.001 | Tubastatin A -0.047 | [9] 0.125 | [6] -0.095 | encorafenib -0.086 | [7] 0.101 | alisertib 0.04 | [8] -0.047 | gefitinib -0.016

KCTD13 (UniProt Q8WZ19)
inactive: barasertib -0.186 | [3] -0.143 | saracatinib 0.076 | sotrastaurin 0.033 | Tubastatin A -0.102 | [9] -0.044 | [6] -0.204 | alisertib -0.16 | gefitinib 0.054

KCNH2 (UniProt Q12809)
inactive: [4] 0.231 | [5] -0.121 | sotrastaurin -0.067 | [9] -0.067

KDM2B (UniProt Q8NHM5)
inactive: [2] 0.106 | [3] -0.074 | sotrastaurin 0.027 | Tubastatin A 0.076 | [9] 0.141 | encorafenib -0.013 | [7] 0.062

IRS2 (UniProt Q9Y4H2)
inactive: [1] 0.026 | barasertib -0.019 | volasertib -0.073 | [3] 0.047 | [4] -0.698 | [5] 0.341 | saracatinib 0.013 | sotrastaurin -0.025 | alvocidib -0.301 | Tubastatin A -0.254 | [9] -0.02 | [6] 0.275 | alisertib 0.068 | [8] 0.004 | gefitinib 0.08

ISG20 (UniProt Q96AZ6)
inactive: barasertib 0.087 | saracatinib 0.073 | [9] 0.007 | [6] 0.043

KAZN isoform 3 (UniProt Q674X7)
inactive: barasertib -0.045 | [3] -0.051 | [4] -0.02 | [5] -0.049 | sotrastaurin 0.086 | alvocidib 0.012 | Tubastatin A 0.195 | [9] -0.005

ITPRID2 (UniProt P28290)
inactive: [1] 0.012 | barasertib -0.051 | [2] 0.038 | volasertib 0.026 | [3] 0.059 | [4] 0.13 | [5] -0.068 | alvocidib -0.048 | Tubastatin A -0.053 | [9] 0.187 | encorafenib 0.073 | [7] -0.017 | alisertib 0.057 | [8] -0.074 | gefitinib -0.095

INTU (UniProt Q9ULD6)
inactive: vemurafenib 0.182 | [3] 0.144 | Tubastatin A -0.167 | defactinib -0.435

JRK isoform 2 (UniProt O75564)
inactive: alisertib -0.016 | gefitinib 0.079

ISL2 (UniProt Q96A47)
inactive: barasertib -0.108 | [3] 0.018 | saracatinib 0.028 | sotrastaurin -0.107 | alvocidib 0.36 | Tubastatin A 0.032 | [9] -0.042 | [6] 0.025
active: [4] 0.832 | [5] -0.397

KCTD16 (UniProt Q68DU8)
inactive: sotrastaurin -0.1

ITPR2 (UniProt Q14571)
inactive: [1] -0.044 | volasertib 0.336 | [3] -0.222 | saracatinib 0.088 | Tubastatin A -0.03 | [9] 0.074 | [6] 0.239 | alisertib 0.001 | [8] 0.234 | gefitinib -0.019

KBTBD6 (UniProt Q86V97)
inactive: [4] 0.09 | [5] -0.021 | sotrastaurin 0.139 | alvocidib -0.049 | alisertib -0.229 | gefitinib -0.059

JMY (UniProt Q8N9B5)
inactive: barasertib 0.098 | [3] -0.202 | [4] -0.089 | [5] 0.009 | saracatinib 0.1 | sotrastaurin 0.057 | alvocidib -0.062 | Tubastatin A 0.132 | [9] -0.008 | [6] 0.087

JCHAIN (UniProt P01591)
inactive: sotrastaurin -0.183 | [9] 0.278

IQCD (UniProt Q96DY2)
inactive: [1] 0.007 | barasertib 0.191 | volasertib 0.065 | alisertib 0.066 | [8] 0.034 | gefitinib -0.143

IRF9 (UniProt Q00978)
inactive: [3] 0.256 | saracatinib 0.149 | Tubastatin A -0.184 | [9] 0.09 | [6] -0.122

Two consecutive entries already listed, for reference:
KAT2A (UniProt Q92830)
inactive: [1] -0.081 | [2] -0.18 | volasertib -0.076 | [3] 0.168 | [4] 0.027 | [5] 0.061 | saracatinib -0.099 | sotrastaurin 0.034 | alvocidib -0.009 | Tubastatin A -0.252 | [6] -0.104 | encorafenib 0.055 | [7] 0.257 | alisertib 0.054 | [8] 0.067

INTS6L (UniProt Q5JSJ4)
inactive: [1] 0.047 | volasertib 0.044 | [3] 0.083 | [4] -0.034 | [5] 0.105 | saracatinib -0.119 | alvocidib 0.011 | Tubastatin A 0.059 | [9] -0.04 | [6] -0.038 | [8] -0.061

Further results

JUN (UniProt P05412)
inactive: [1] -0.054 | [2] -0.033 | volasertib 0.004 | [3] -0.065 | saracatinib -0.035 | sotrastaurin 0.073 | Tubastatin A -0.06 | [9] -0.033 | [6] 0.074 | encorafenib 0.163 | [7] -0.134 | [8] 0.003

ITM2B (UniProt Q9Y287)
inactive: vemurafenib 0.021 | barasertib 0.258 | [3] -0.012 | [4] -0.141 | [5] 0.069 | saracatinib -0.053 | sotrastaurin -0.012 | alvocidib 0.015 | Tubastatin A 0.007 | [9] 0.037 | defactinib 0.16 | [6] 0.074 | alisertib 0.006 | gefitinib 0.008

JUNB (UniProt P17275)
inactive: [4] 0.035 | [5] 0.038 | saracatinib 0.214 | sotrastaurin 0.085 | alvocidib -0.075 | [6] 0.025

KANSL1 (UniProt Q7Z3B3)
inactive: [1] -0.084 | [2] -0.208 | volasertib -0.048 | [3] 0.047 | [4] -0.169 | [5] -0.03 | saracatinib -0.116 | alvocidib -0.02 | Tubastatin A -0.163 | [9] 0.156 | [6] -0.043 | encorafenib 0.014 | [7] 0.2 | alisertib -0.022 | [8] -0.042 | gefitinib 0.091

ITPR3 (UniProt Q14573)
inactive: [1] 0.046 | volasertib -0.004 | sotrastaurin 0.207 | [9] 0.043 | [8] 0.1

JAG2 (UniProt Q9Y219)
inactive: [1] -0.051 | barasertib -0.035 | [2] 0.106 | volasertib 0.142 | [3] -0.061 | [4] 0.253 | [5] 0.099 | saracatinib 0.007 | sotrastaurin -0.032 | alvocidib -0.046 | Tubastatin A 0.007 | [9] 0.093 | [6] -0.058 | encorafenib 0.028 | [7] 0.023 | [8] -0.081

ITGB3BP isoform 5 (UniProt Q13352)
inactive: [3] 0.105 | [4] 0.005 | [5] -0.025 | sotrastaurin -0.1 | alvocidib -0.084 | Tubastatin A -0.081
